Patent US20230312744A1, “Modulatory Substance of Tumor Immune Microenvironment, and Preventive, Diagnostic and/or Therapeutic Utilization of the Same” (The University Of Tokyo, priority 2020, published 2023)
These are yes or no findings as the source states them, for the method shown. Binding seen in cells or lysates may run through a third protein. Some binding calls cover weakened binding; strength is not graded here. Sequences can lack the tags named with a protein.

Chains of the proteins cited; added tags and fusions are not shown.
UniProt O60603: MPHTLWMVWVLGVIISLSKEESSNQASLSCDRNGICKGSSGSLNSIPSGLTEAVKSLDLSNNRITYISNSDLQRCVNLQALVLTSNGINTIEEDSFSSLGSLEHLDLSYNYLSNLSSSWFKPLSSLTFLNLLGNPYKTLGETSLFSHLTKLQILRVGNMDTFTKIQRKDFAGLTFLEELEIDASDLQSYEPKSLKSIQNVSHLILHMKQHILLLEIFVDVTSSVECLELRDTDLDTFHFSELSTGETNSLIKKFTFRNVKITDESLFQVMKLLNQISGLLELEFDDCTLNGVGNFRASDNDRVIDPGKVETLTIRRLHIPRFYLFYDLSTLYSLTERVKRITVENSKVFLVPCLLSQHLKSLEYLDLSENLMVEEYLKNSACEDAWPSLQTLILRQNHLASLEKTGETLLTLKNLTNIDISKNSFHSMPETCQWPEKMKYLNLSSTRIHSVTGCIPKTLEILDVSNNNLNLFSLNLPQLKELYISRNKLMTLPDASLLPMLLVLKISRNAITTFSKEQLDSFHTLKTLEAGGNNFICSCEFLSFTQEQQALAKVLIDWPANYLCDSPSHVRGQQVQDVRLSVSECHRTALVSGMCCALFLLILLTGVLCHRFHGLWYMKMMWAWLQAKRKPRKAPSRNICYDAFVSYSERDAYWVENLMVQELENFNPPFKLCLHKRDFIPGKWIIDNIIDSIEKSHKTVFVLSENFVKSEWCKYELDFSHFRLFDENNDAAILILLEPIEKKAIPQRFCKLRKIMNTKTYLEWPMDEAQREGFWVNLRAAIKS

Biological target: TLR2-YFP (pcDNA3.1-hTLR2-YFP) (human) (UniProt O60603)
Assay: co-immunoprecipitation from HEK293T lysate with anti-GFP antibody, blot with anti-FLAG antibody

binding: binds
B1: Flag-TCTP (pCXNII-FLAG-hTCTP) (ligand, human, UniProt P13693 1-172, looked up, not shown: small tags and cut ends)
chain: MIIYRDLISHDEMFSDIYKIREIADGLCLEVEGKMVSRTEGNIDDSLIGGNASAEGPEGEGTESTVITGVDIVMNHHLQETSFTKEAYKKYIKDYMKSIKGKLEEQRPERVKPFMTGAAEQIKHILANFKNYQFFIGENMNPDGMVALLDYREDGVTPYMIFFKDGLEMEKC
